In publication PMC12053880:
No constants are given. Whether binding was seen depends on the method and setting. For some of these results: Binding seen in cells or lysates may run through a third protein. Some binding calls cover weakened binding; strength is not graded here. For some of these results: Sequences can lack the tags named with a protein.

Sequences of proteins named here, by UniProt entry; tags and fusion partners are left off. Residues count along the entry.
UniProt P63104: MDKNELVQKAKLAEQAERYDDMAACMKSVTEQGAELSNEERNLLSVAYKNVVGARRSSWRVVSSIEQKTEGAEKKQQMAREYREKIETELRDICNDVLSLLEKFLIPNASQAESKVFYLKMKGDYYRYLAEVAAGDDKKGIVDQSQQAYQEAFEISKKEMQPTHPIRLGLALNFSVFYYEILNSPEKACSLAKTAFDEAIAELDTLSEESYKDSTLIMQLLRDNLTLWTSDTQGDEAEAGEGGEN
UniProt P31040, residues 43-664: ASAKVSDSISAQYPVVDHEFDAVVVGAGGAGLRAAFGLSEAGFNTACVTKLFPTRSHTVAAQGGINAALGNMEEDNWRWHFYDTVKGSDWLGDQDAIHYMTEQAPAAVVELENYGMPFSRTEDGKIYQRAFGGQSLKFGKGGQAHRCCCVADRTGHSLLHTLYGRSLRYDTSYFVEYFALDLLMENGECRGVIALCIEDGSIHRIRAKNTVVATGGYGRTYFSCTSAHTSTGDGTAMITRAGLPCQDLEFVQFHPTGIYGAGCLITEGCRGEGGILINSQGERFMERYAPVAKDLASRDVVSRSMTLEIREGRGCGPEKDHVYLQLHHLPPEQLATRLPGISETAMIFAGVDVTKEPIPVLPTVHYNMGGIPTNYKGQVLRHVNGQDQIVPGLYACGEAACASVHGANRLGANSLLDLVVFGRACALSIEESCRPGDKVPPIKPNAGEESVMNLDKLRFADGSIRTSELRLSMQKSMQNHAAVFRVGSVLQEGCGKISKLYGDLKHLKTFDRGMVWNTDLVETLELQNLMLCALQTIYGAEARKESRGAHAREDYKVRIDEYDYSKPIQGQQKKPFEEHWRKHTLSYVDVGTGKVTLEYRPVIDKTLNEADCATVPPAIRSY
UniProt Q92830: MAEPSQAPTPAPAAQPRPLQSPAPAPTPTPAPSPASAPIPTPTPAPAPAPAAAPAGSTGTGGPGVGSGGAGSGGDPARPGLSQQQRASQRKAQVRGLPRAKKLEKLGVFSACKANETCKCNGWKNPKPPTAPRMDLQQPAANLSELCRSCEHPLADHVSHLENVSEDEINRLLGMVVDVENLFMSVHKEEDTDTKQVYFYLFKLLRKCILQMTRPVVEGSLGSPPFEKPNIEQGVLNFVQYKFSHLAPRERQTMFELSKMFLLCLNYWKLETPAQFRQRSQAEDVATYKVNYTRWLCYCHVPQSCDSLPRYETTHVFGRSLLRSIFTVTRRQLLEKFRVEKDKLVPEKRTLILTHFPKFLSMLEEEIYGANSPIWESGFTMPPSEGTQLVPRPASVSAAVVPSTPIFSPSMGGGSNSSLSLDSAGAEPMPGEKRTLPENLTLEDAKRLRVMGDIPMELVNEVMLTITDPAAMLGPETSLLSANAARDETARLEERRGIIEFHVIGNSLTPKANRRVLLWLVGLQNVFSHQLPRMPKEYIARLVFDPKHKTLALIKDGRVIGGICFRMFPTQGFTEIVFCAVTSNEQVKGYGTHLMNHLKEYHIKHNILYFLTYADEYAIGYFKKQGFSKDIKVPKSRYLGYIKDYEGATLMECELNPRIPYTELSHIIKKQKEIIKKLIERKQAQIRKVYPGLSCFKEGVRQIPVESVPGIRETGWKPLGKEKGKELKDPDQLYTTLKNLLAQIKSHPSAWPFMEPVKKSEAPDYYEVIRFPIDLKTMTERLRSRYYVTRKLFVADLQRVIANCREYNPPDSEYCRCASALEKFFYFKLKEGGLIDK

Tests used:
[1] = target: YWHAZ-WT (wild-type YWHAZ, a 14-3-3 protein), 3×HA-tagged (human) (UniProt P63104); assay: co-IP; lysates of MSCs incubated at 4°C overnight with Anti-HA and Anti-FLAG Nanobody Magarose Beads; rinsed with 0.05% Tween 20 in PBS and lysis buffer; western blotting
[2] = target: YWHAZ-GST recombinant protein (human) (UniProt P63104); assay: pull-down; purified YWHAZ-GST immobilised on Glutathione-Sepharose beads (2 h, 4°C), incubated with SUCLG2 or OXCT1 recombinant protein overnight at 4°C in lysis buffer; immunoblotting; both purified

| binding [1] | binding [2] | Molecule |
| --- | --- | --- |
| no binding | – | succinate dehydrogenase (SDHA), EGFP- and 3×FLAG-tagged (from UniProt P31040 43-664) (enzyme) |
| – | binds | SUCLG2 recombinant protein (enzyme, UniProt Q96I99 38-432) LNLQEYQSKKLMSDNGVRVQRFFVADTANEALEAAKRLNAKEIVLKAQILAGGRGKGVFNSGLKGGVHLTKDPNVVGQLAKQMIGYNLATKQTPKEGVKVNKVMVAEALDISRETYLAILMDRSCNGPVLVGSPQGGVDIEEVAASNPELIFKEQIDIFEGIKDSQAQRMAENLGFVGPLKSQAADQITKLYNLFLKIDATQVEVNPFGETPEGQVVCFDAKINFDDNAEFRQKDIFAMDDKSENEPIENEAAKYDLKYIGLDGNIACFVNGAGLAMATCDIIFLNGGKPANFLDLGGGVKEAQVYQAFKLLTADPKVEAILVNIFGGIVNCAIIANGITKACRELELKVPLVVRLEGTNVQEAQKILNNSGLPITSAIDLEDAAKKAVASVAKK |

Further lines, the molecule ahead of its results:

| Molecule | binding [1] | binding [2] |
| --- | --- | --- |
| lysine acetyltransferase 2A (KAT2A), FLAG-tagged (from UniProt Q92830 1-837) (enzyme) | no binding | – |
| succinate-CoA ligase GDP-forming subunit beta (SUCLG2), 3×FLAG-tagged (enzyme, UniProt Q96I99 38-432) LNLQEYQSKKLMSDNGVRVQRFFVADTANEALEAAKRLNAKEIVLKAQILAGGRGKGVFNSGLKGGVHLTKDPNVVGQLAKQMIGYNLATKQTPKEGVKVNKVMVAEALDISRETYLAILMDRSCNGPVLVGSPQGGVDIEEVAASNPELIFKEQIDIFEGIKDSQAQRMAENLGFVGPLKSQAADQITKLYNLFLKIDATQVEVNPFGETPEGQVVCFDAKINFDDNAEFRQKDIFAMDDKSENEPIENEAAKYDLKYIGLDGNIACFVNGAGLAMATCDIIFLNGGKPANFLDLGGGVKEAQVYQAFKLLTADPKVEAILVNIFGGIVNCAIIANGITKACRELELKVPLVVRLEGTNVQEAQKILNNSGLPITSAIDLEDAAKKAVASVAKK | binds | – |
